Experimental data published in the supplement of paper PMC10849652.
The other results are listed elsewhere or left out.

By UniProt entry, the sequences of proteins in these tests, tags left out. Where a name states a change or a piece, a line headed by the entry shows the natural chain unless it says otherwise.
UniProt Q96T21: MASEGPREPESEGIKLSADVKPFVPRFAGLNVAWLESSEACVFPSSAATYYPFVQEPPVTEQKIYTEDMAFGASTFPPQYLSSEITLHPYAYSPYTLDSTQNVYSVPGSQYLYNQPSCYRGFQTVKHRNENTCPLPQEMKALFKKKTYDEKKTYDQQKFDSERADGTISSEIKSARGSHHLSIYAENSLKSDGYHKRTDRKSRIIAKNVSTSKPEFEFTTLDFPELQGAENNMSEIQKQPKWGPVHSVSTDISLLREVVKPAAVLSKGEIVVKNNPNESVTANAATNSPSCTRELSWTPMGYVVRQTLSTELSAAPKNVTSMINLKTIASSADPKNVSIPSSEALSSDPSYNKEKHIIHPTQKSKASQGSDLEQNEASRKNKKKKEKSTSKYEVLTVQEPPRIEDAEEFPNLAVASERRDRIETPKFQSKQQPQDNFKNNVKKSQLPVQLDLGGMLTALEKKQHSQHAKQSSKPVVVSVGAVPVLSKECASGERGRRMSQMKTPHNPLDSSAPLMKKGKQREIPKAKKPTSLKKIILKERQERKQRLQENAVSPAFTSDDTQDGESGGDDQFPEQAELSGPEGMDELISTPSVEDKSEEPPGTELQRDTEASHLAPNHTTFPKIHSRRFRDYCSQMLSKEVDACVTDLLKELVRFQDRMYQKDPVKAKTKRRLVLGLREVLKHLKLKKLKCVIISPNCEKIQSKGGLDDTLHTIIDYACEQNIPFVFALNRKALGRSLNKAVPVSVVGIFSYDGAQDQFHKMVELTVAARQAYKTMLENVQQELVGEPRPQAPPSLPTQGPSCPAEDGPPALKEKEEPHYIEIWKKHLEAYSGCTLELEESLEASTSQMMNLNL
UniProt Q6UWP8: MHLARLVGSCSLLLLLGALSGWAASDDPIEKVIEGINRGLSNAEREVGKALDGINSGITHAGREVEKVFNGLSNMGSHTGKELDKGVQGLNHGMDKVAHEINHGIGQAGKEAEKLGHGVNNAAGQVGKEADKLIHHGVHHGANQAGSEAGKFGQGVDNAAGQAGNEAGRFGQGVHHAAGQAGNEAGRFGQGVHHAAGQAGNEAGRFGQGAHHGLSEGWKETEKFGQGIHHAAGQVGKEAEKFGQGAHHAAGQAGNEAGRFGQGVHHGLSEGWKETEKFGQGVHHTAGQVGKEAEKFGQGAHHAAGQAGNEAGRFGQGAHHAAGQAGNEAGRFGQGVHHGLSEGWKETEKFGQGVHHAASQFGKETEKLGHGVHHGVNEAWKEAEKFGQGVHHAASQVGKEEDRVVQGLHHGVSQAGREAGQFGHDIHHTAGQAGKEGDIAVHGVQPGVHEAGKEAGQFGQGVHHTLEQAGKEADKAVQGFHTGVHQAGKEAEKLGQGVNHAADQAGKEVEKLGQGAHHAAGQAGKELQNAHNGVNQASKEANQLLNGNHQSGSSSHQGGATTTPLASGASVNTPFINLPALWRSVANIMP
UniProt Q8N9R8: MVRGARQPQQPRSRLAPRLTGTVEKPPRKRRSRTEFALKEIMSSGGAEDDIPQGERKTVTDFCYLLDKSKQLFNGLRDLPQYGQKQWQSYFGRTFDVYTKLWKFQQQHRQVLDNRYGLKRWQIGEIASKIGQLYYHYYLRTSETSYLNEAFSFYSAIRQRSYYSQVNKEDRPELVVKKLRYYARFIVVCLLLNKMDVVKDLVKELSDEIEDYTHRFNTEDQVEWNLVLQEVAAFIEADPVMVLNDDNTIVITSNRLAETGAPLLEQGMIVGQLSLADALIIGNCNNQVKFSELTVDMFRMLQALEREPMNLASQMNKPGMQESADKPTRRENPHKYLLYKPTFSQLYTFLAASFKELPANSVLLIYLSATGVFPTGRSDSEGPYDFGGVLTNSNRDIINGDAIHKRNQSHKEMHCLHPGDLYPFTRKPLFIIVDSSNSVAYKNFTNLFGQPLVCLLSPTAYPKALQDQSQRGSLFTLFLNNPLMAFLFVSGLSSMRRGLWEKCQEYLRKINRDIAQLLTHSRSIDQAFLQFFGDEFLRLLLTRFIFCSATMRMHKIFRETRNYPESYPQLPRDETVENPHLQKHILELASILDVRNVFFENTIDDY
UniProt A6NKF1: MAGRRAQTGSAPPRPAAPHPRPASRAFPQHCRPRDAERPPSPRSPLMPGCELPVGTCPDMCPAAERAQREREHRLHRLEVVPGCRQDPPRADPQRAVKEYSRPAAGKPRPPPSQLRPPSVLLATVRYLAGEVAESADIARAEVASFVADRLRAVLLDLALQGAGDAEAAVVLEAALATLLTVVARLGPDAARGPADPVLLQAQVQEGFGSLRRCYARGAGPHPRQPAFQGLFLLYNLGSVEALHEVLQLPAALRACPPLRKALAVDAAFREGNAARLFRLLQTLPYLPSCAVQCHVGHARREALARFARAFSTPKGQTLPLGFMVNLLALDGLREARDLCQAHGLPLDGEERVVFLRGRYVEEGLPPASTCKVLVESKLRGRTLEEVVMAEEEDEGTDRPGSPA
UniProt Q9UIL1: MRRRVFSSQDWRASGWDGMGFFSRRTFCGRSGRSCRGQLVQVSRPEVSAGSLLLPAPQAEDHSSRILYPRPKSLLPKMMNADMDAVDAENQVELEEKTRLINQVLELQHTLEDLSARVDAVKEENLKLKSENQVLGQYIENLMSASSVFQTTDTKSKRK
UniProt O60613, whole entry, looked up: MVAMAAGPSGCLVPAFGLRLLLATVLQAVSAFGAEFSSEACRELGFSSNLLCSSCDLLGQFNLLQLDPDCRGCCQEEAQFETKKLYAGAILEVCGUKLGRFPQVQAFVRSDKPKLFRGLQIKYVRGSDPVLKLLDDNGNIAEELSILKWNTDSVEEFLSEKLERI
UniProt Q96LT4: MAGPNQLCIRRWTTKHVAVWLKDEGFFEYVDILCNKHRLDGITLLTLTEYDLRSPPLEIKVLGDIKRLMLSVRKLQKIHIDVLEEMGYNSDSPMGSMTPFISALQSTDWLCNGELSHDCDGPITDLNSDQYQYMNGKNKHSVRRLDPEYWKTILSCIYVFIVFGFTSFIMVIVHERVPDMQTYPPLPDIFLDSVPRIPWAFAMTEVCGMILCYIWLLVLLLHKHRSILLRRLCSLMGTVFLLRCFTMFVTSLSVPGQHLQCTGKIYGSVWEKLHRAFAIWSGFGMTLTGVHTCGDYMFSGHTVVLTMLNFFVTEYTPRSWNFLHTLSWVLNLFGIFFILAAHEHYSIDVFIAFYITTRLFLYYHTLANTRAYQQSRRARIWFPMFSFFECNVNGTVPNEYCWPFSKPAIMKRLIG
UniProt Q9NSC2: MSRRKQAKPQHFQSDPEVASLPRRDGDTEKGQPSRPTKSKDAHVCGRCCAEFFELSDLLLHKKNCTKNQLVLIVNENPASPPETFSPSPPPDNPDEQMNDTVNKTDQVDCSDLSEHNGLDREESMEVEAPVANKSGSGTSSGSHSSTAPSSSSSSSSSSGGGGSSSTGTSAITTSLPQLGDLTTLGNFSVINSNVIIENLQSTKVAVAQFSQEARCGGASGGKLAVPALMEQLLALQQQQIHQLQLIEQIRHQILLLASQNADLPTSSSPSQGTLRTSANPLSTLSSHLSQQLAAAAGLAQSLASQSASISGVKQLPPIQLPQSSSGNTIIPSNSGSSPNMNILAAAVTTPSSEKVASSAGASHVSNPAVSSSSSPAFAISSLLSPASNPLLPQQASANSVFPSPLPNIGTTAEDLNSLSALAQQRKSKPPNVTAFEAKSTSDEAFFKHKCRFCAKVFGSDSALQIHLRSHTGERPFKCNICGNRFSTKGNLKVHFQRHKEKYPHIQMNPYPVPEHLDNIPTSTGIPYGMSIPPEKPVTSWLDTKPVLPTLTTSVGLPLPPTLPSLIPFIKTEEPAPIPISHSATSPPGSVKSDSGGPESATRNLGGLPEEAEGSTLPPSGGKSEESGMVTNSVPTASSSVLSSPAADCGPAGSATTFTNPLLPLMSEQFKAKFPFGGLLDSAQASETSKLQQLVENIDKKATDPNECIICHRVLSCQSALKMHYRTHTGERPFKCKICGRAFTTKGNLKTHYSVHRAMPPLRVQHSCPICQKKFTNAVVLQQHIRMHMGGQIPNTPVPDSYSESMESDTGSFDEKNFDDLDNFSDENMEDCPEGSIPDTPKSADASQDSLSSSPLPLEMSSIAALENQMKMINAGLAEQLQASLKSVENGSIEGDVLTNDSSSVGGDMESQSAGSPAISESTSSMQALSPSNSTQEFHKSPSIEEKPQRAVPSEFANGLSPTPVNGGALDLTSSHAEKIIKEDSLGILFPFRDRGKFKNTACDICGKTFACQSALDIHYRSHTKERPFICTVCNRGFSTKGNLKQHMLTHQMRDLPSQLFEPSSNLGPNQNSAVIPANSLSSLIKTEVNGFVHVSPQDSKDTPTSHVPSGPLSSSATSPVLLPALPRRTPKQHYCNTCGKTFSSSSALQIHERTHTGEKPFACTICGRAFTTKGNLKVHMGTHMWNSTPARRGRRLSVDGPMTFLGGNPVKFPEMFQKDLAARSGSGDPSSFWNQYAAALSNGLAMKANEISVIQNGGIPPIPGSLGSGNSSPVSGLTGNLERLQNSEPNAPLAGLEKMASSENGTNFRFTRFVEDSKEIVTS
UniProt Q9NRG7: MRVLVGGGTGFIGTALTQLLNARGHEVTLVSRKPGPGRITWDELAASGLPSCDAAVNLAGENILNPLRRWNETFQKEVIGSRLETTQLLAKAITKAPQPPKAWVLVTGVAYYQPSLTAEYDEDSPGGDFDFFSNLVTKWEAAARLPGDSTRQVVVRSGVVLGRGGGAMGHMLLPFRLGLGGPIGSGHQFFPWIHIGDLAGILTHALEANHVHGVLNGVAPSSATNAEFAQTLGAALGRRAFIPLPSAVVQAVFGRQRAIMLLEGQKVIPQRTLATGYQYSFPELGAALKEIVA
UniProt Q99470: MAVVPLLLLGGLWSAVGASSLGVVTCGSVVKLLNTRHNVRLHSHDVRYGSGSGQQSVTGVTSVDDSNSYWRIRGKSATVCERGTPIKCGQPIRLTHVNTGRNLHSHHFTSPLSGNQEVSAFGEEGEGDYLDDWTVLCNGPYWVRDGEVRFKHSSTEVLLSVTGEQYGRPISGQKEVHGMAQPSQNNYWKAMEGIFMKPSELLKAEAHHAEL
UniProt O75845: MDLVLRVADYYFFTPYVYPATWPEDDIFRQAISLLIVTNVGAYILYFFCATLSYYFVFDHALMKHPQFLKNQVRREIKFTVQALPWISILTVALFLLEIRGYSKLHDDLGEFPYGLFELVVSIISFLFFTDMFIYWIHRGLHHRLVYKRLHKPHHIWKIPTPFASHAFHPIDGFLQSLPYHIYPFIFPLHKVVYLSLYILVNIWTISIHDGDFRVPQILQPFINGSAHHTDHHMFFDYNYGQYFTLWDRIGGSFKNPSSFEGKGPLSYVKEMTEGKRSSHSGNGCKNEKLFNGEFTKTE
UniProt Q15437: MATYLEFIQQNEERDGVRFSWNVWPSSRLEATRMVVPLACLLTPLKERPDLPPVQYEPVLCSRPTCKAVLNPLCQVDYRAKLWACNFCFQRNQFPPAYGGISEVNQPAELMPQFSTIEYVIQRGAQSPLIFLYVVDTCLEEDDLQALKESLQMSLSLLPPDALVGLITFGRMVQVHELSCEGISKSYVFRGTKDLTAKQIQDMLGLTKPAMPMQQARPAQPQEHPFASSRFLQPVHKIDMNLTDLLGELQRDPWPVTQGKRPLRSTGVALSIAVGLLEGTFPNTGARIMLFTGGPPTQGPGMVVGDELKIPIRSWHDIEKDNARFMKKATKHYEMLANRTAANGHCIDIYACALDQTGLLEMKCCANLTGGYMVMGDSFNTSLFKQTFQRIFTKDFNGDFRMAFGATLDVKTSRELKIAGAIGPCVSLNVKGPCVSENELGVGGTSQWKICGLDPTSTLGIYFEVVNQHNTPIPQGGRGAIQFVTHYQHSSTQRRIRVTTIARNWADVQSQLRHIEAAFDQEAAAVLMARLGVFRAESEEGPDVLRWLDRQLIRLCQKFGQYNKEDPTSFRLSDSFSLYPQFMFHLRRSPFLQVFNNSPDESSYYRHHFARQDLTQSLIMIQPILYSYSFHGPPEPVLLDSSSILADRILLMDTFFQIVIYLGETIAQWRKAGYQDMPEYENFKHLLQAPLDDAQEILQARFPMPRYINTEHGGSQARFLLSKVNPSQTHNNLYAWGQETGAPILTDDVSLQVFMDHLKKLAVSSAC
UniProt P63302, whole entry, looked up: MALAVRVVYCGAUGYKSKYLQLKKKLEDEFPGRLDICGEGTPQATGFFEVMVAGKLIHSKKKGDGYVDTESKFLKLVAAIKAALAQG
UniProt Q9HAJ7: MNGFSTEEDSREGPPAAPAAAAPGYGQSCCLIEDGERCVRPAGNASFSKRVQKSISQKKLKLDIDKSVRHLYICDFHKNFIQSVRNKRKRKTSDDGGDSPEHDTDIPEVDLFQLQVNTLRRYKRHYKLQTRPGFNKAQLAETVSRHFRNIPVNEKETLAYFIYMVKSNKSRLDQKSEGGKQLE
UniProt Q9BWG6: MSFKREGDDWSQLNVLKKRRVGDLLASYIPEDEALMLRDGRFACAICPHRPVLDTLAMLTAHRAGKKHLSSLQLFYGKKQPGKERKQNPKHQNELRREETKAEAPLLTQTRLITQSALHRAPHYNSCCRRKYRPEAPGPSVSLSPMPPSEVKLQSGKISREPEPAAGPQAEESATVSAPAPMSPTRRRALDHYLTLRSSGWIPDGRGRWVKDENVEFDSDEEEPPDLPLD

Legend:
Assay in all cases: log2 fold change, soluble protein after heating vs DMSO (PISA); higher = thermal stabilisation; K562 lysate, 10 uM; active = over 0.2 and 3.5 SD of the protein, either way, in both replicates (recomputed)
[1] = compound: NCC(=O)Nc1ccc(-n2nc(C(F)(F)F)cc2-c2ccc3c(ccc4ccccc43)c2)cc1
Outline: (§1)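 Log-two fold change in thermal stability relative to solvent controls is reported from duplicates. For each sample, crude K562 extract from dounce-homogenised pellets in PBS pH 7.4 with 1 mM MgCl2, at 1 mg/mL protein, was treated with 10 μM compound for 30 min. Aliquots heated for 3 min across 48°C-58°C were pooled, brought to 0.5% NP-40 at 4°C and cleared at 21,000xg for 90 min. The supernatant was quantified by TMTpro 16plex LC-MS/MS with channel sums equalised.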

[2] = compound: O=C1NC(=O)C(c2cnc3ccccn23)=C1c1cn2c3c(cc(F)cc13)CN(C(=O)N1CCCCC1)CC2
Outline: as §1

[3] = compound: c1cn2cc(-c3ccc4cn[nH]c4c3)nc(Nc3ccc(N4CCOCC4)cc3)c2n1 [entospletinib]
Outline: as §1

[4] = compound: O=C(CCCCCCC(=O)Nc1ccccc1)NO [vorinostat]
Outline: as §1

[5] = compound: O=C(O)c1ccc2c(c1)nc(Nc1cccc(Cl)c1)c1ccncc12 [silmitasertib]
Outline: as §1

| Target | log2 fold change [1] | log2 fold change [2] | log2 fold change [3] | log2 fold change [4] | log2 fold change [5] |
| --- | --- | --- | --- | --- | --- |
| SECISBP2 (UniProt Q96T21) | inactive: -0.089 | inactive: -0.038 | inactive: -0.029 | – | – |
| SBSN (UniProt Q6UWP8) | – | – | – | inactive: 0.09 | inactive: -0.133 |
| SEC31A (UniProt H0YAB3) | – | – | – | inactive: 0.059 | inactive: 0.042 |
| SDCCAG8 (UniProt S4R323) | – | inactive: 0.035 | – | inactive: -0.181 | inactive: 0.037 |
| SALL2 (UniProt Q9Y467) | – | inactive: 0.003 | inactive: 0.028 | inactive: -0.412 | inactive: -0.197 |
| SARM1 (UniProt Q6SZW1) | – | – | – | inactive: 0.017 | inactive: -0.102 |
| SAFB2 (UniProt K7EQU4) | – | inactive: -0.063 | – | – | – |
| SELENOM (UniProt Q8WWX9) | – | inactive: 0.004 | – | – | – |
| SAE1 (UniProt M0R286) | inactive: 0.148 | – | inactive: -0.019 | inactive: 0.005 | inactive: 0.013 |
| SDC3 (UniProt O75056) | – | inactive: -0.059 | – | inactive: 0.114 | inactive: 0.029 |
| SCGB1D2 (UniProt O95969) | – | inactive: 0.097 | inactive: -0.26 | inactive: 0.497 | inactive: -0.35 |
| SELENOT (UniProt P62341) | – | inactive: -0.08 | inactive: 0.115 | inactive: 0.018 | inactive: -0.082 |
| SEC22A (UniProt Q96IW7) | – | inactive: 0.029 | – | – | – |
| SCAI isoform 2 (UniProt Q8N9R8) | inactive: 0.236 | – | inactive: 0.107 | – | – |
| SAC3D1 (UniProt A6NKF1) | – | inactive: -0.126 | – | – | – |
| SCGB1D1 (UniProt O95968) | – | – | – | inactive: 0.435 | inactive: -0.066 |
| SCOC (UniProt Q9UIL1) | – | inactive: -0.105 | – | inactive: 0.356 | inactive: 0.095 |
| SELENOF (UniProt O60613) | inactive: -0.096 | inactive: 0.02 | inactive: -0.022 | inactive: 0.158 | inactive: -0.01 |
| SASH1 (UniProt O94885) | – | inactive: 0.091 | inactive: 0.087 | inactive: 0.144 | inactive: -0.014 |

| Target | log2 fold change [1] | log2 fold change [2] | log2 fold change [3] | log2 fold change [4] | log2 fold change [5] |
| --- | --- | --- | --- | --- | --- |
| SAMD8 (UniProt Q96LT4) | – | – | – | inactive: 0.183 | inactive: 0.015 |
| SELENOI (UniProt Q9C0D9) | – | inactive: 0.005 | inactive: 0.003 | inactive: 0.112 | inactive: -0.05 |
| SALL1 (UniProt Q9NSC2) | – | – | inactive: 0.043 | – | – |
| SAMD1 (UniProt Q6SPF0) | – | inactive: 0.034 | inactive: 0.034 | – | – |
| SDR39U1 (UniProt Q9NRG7) | – | – | – | inactive: -0.072 | inactive: -0.063 |
| SENP7 (UniProt Q9BQF6) | – | inactive: -0.091 | inactive: -0.012 | – | – |
| SDF2 (UniProt Q99470) | – | inactive: 0.125 | – | – | – |
| SCAND1 (UniProt P57086) | – | inactive: -0.195 | – | – | – |
| SEM1 (UniProt P60896) | – | – | – | inactive: 0.126 | inactive: -0.053 |
| SC5D (UniProt O75845) | – | inactive: -0.01 | inactive: -0.04 | – | – |
| SEC23B (UniProt Q15437) | inactive: -0.025 | inactive: -0.006 | inactive: 0.05 | inactive: -0.02 | inactive: -0.003 |
| SAGE1 (UniProt Q9NXZ1) | – | inactive: -0.018 | inactive: -0.088 | inactive: 0.023 | inactive: -0.023 |
| SDCBP isoform 2 (UniProt O00560) | – | inactive: 0.222 | – | inactive: 0.078 | inactive: 0.003 |
| SAP30 (UniProt O75446) | inactive: 0.001 | inactive: -0.024 | inactive: -0.022 | – | – |
| SELENOW (UniProt P63302) | – | inactive: -0.045 | – | – | – |
| SENP3 (UniProt Q9H4L4) | inactive: 0.143 | inactive: 0 | inactive: 0.045 | inactive: -0.128 | inactive: 0.044 |
| SAMD9 (UniProt Q5K651) | – | inactive: 0.018 | inactive: 0.003 | – | – |
| SAP30L (UniProt Q9HAJ7) | – | inactive: -0.002 | – | inactive: -0.334 | inactive: 0.21 |
| SCNM1 (UniProt Q9BWG6) | – | inactive: -0.082 | inactive: 0.092 | inactive: -0.13 | inactive: -0.102 |

Whole records, quoted from the list. Values in the order: log2 fold change [1]	log2 fold change [2]	log2 fold change [3]	log2 fold change [4]	log2 fold change [5]
SELENOI (UniProt Q9C0D9) as listed: –	inactive: 0.005	inactive: 0.003	inactive: 0.112	inactive: -0.05
SDR39U1 (UniProt Q9NRG7) as listed: –	–	–	inactive: -0.072	inactive: -0.063
